Measured values from publication PMC7819943, “Rice protein-binding microarrays: a tool to detect cis-acting elements near promoter regions in rice”.
Some of the results follow.

molecular target: T1, OsSMF1 (Oryza sativa, UniProt Q6ZLB0 1-436); test: protein-binding microarray (RPBM); PBS, 2% BSA, 51.3 ng/ul salmon testes DNA, 50 uM zinc acetate, 200 nM TF, 25 C, 1 h; high values mean tight binding; conditions: protein: recombinant; tags: N-terminal polyhistidine and DsRed monomer fusion (pET32a); chain copies: 2; label: CyDye5-dUTP incorporated in the synthesized complementary strand; 3' TTTTT single-stranded linker to array surface; dsDNA, one strand shown
T1 sequence: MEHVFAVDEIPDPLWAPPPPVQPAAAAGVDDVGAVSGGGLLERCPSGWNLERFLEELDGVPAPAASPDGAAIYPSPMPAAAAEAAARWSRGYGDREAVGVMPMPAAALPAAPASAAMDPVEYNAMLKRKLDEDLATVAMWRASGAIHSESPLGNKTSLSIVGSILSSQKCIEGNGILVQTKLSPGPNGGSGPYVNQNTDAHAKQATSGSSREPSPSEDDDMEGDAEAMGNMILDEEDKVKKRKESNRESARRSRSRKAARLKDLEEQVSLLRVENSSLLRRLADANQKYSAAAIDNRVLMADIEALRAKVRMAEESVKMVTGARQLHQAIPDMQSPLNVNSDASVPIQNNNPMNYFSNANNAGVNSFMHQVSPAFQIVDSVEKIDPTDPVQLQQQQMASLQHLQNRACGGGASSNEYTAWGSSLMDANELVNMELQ
Method in brief: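 Binding signal is reported as fluorescence intensity per feature (arbitrary units) from an Axon 4000B scanner. Incubation used 200 nM of each Ni–NTA-purified, N-terminally polyhistidine- and DsRed-fused transcription factor from E. coli BL21-CodonPlus on a double-stranded custom Agilent array for 1 h at 25 °C, with 50 µM zinc acetate in the buffer, followed by washing.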

| Sequence | binding signal |
| --- | --- |
| ACACTTAACAACGGTGTCAAGCGAAATGGCCCCATGTCATCGGAGTCACCTAGTGCAG | 3290 fluorescence intensity (a.u.) |
| ATGATGAAACCTCAAGCTGCATTACTTTTCCAATAGTTTGCGGAGTCACCTAGTGCAG | 5940 fluorescence intensity (a.u.) |
| ACAAGAAATATTCAATATTCTTGCGTCAGTACTGTAGCGGCGGAGTCACCTAGTGCAG | 5900 fluorescence intensity (a.u.) |
| GAGCCTGCAAAGCTTTTGTTTGCAAACTATTGTCCGTGATCGGAGTCACCTAGTGCAG | 3200 fluorescence intensity (a.u.) |
| GACGAATTCATTAAGCATAATTAATCTGTCATTAGCAAATCGGAGTCACCTAGTGCAG | 3200 fluorescence intensity (a.u.) |
| TCAGGTCACACCCTCCTCTCACACATCAGCTTGTGCAAAGCGGAGTCACCTAGTGCAG | 3780 fluorescence intensity (a.u.) |
| GAACGGTAGAATGATTATTGCTCCTTCAGTTTTCGAGTAACGGAGTCACCTAGTGCAG | 3320 fluorescence intensity (a.u.) |
| GCCGAGCGGAGGCAGTATCCCTGCATAGATGGTTCACCCCCGGAGTCACCTAGTGCAG | 3480 fluorescence intensity (a.u.) |
| GGTGGGGCCCACGCTCCAGCGTCCGAGCCAGCTGGCGGCACGGAGTCACCTAGTGCAG | 3870 fluorescence intensity (a.u.) |
| CGCCGTCGCCGTCGCCGTCGCCGCCGCGGCCAGATCCCCTCGGAGTCACCTAGTGCAG | 4340 fluorescence intensity (a.u.) |
| AGCCCTCGATCTGGACCGTCTGTTCTGTTTACAGATCCAGCGGAGTCACCTAGTGCAG | 3970 fluorescence intensity (a.u.) |
| ATGAGTAGCTCCTTGCTTGTGTGTCACTCTACCCTTTGGACGGAGTCACCTAGTGCAG | 5200 fluorescence intensity (a.u.) |
| GCAGGTTGATGCATAGCTCGCGCGCACGCGCCTGTGTCCACGGAGTCACCTAGTGCAG | 3450 fluorescence intensity (a.u.) |
| TCTTTATAAAACCAGCGGAAAGGGATAACCATACGCCGCGCGGAGTCACCTAGTGCAG | 35500 fluorescence intensity (a.u.) |
| CCCAGAAATGCTGGGCCGGTGCTTCGCCTGCCGCTCCGGCCGGAGTCACCTAGTGCAG | 13000 fluorescence intensity (a.u.) |
| AGATTTAAGAGGACGTCACGGGCCCAATCAGGCATGCGAACGGAGTCACCTAGTGCAG | 5470 fluorescence intensity (a.u.) |
| TGTGTTCCCTTTCGGTACGTTGTATTTCGACCCTGACGTTCGGAGTCACCTAGTGCAG | 42700 fluorescence intensity (a.u.) |
| CCCCAGGATCGGTGTCCCCACACGTCAGCGATAAGTGAGGCGGAGTCACCTAGTGCAG | 8620 fluorescence intensity (a.u.) |
| CGCTGAGCCAGCTGCGACCGCCGACGTCGTCTGCGCCATCCGGAGTCACCTAGTGCAG | 37500 fluorescence intensity (a.u.) |
| CTGAAAACCGGACGCTTTGCTGCGTTAGCATCGCCATTATCGGAGTCACCTAGTGCAG | 3440 fluorescence intensity (a.u.) |
| CACTATACCAAATTACCAATAGTTTCACACCTCATCACTGCGGAGTCACCTAGTGCAG | 3240 fluorescence intensity (a.u.) |

Quoted from the listing:
binding signal, ATGAGTAGCTCCTTGCTTGTGTGTCACTCTACCCTTTGGACGGAGTCACCTAGTGCAG is entered as 5200 fluorescence intensity (a.u.)
binding signal, GCAGGTTGATGCATAGCTCGCGCGCACGCGCCTGTGTCCACGGAGTCACCTAGTGCAG is entered as 3450 fluorescence intensity (a.u.)
binding signal, CACTATACCAAATTACCAATAGTTTCACACCTCATCACTGCGGAGTCACCTAGTGCAG is entered as 3240 fluorescence intensity (a.u.)

(further entries)

| Sequence | binding signal |
| --- | --- |
| ATCCCTCGACAATGATGTGTCCATAGTGTCTTCATTAATACGGAGTCACCTAGTGCAG | 3560 fluorescence intensity (a.u.) |
| CTGAACTTTCCTTTCTTTTCATGAGTCGCCACGGTTTCGTCGGAGTCACCTAGTGCAG | 3490 fluorescence intensity (a.u.) |
| ATGTTCATATGAGGATCCACACGTCAATCCACGTCTCTTCCGGAGTCACCTAGTGCAG | 6930 fluorescence intensity (a.u.) |
| GGTAGGTTATGCATATGAAAACTATTTGAAATCTTCCACACGGAGTCACCTAGTGCAG | 28000 fluorescence intensity (a.u.) |
| AGCCTCCTCAAGTTGAATGCCACGTATTGCACTGTGAAAGCGGAGTCACCTAGTGCAG | 38800 fluorescence intensity (a.u.) |
| GCCGCATCGGCCCTCGGCGCATTGCAGTTCATGACGGCGGCGGAGTCACCTAGTGCAG | 4020 fluorescence intensity (a.u.) |
| AATAAATCTAAACAATGATATATCCAGATTTGTTATAGTACGGAGTCACCTAGTGCAG | 28300 fluorescence intensity (a.u.) |
| ATTACTTGAGTCAGATCCAGAAGCATCCATCCATCCATCACGGAGTCACCTAGTGCAG | 4660 fluorescence intensity (a.u.) |
| GTCGCTTTTATAAATACCTCAAACTTGGCGTACGACGCATCGGAGTCACCTAGTGCAG | 3210 fluorescence intensity (a.u.) |
| GGGAGGGAAAGGTGGGAGGTATTTTCCTGTGTGGTCCACTCGGAGTCACCTAGTGCAG | 4480 fluorescence intensity (a.u.) |
| GACATGATGCACAGATCTACCTGGGTGGGTGACCACTCATCGGAGTCACCTAGTGCAG | 3190 fluorescence intensity (a.u.) |
| CATGTCTATCGATGTCATAATATGTTAATTATGCCTAGATCGGAGTCACCTAGTGCAG | 3810 fluorescence intensity (a.u.) |
| ACAGCAGCCGCGGCTACTATAATGGTGGGAGAGACAAACTCGGAGTCACCTAGTGCAG | 4290 fluorescence intensity (a.u.) |
| CTGGGTTCCATGGTCACTGCCAGGTGGGGCCCAGATTCTGCGGAGTCACCTAGTGCAG | 3140 fluorescence intensity (a.u.) |
| GGACAGCGTCACTCCTGTTGCTAGCTAAGGACGTGGATGCCGGAGTCACCTAGTGCAG | 32800 fluorescence intensity (a.u.) |
| GCCTCCTGCCGTGCTTGTCCACCGGCGCCGACGACGACGACGGAGTCACCTAGTGCAG | 33700 fluorescence intensity (a.u.) |
| GACCAAAATATCCCGCTGTCTCAGCAACGTCACGCGGCGCCGGAGTCACCTAGTGCAG | 3480 fluorescence intensity (a.u.) |
| AACGCACATTCAGCGCCACGCTATTTGGTGCTGAGGTGTCCGGAGTCACCTAGTGCAG | 8500 fluorescence intensity (a.u.) |
| TGCGTGTTCTCTCTGTCACTAACTCACTGGAACAGATCCACGGAGTCACCTAGTGCAG | 3940 fluorescence intensity (a.u.) |
| CCGATCTCCACCACCACCACCACCACGCGGGCGCGCGCACCGGAGTCACCTAGTGCAG | 4580 fluorescence intensity (a.u.) |
| AAGCTCGTCCGCCACCGCGTCATCTCACAGGTTTACTATACGGAGTCACCTAGTGCAG | 3370 fluorescence intensity (a.u.) |
